Measured values: PubChem BioAssay AID624291 (National Center for Advancing Translational Sciences (NCATS), 2012)
Out of some 350,000 compounds screened, about 220 (0.063%) were called active. The inconclusive results got no clear call from the source; some entries with a clear call stand among them for comparison. The call rests on the fitted dose curve; in most records, active means well fitted activation curve with a large enough effect; inconclusive means small, poorly fitted or top-dose-only effect; inactive means no such curve, though single readings can be large or run the other way. Potencies of inconclusive entries are doubtful fits and often do not repeat.
Potency means the concentration at half of the fitted maximal effect.

Experiment: qHTS for Activators of Integrin-Mediated Alleviation for Muscular Dystrophy; further: nearly all actives have a fitted effect of over 60% in size
Conditions: alpha7betagal myoblasts, beta-gal FDG fluorescence, 48 h; series mostly up to 38.3 µM
How it was run: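 Alpha7betagal+/- myoblasts (passage 13) were plated 16-24 hr, then exposed to compounds (1:260 dilution of DMSO stock) for 48 hours at 37C. After MPER lysis, β-galactosidase reporter activity was read as FDG fluorescence (ex 480/em 540) after 30 minutes.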
In the case of `CCc1cccc(CC)c1NC(=O)Cn1c(-c2ccccc2Cl)nc2ccccc21`, the Potency is reported as “inactive”.
For `CCN1CCN(c2ccc(NC(=O)c3cc(OC)c(OC)c(OC)c3)cc2)CC1`, the Potency was inconclusive: 2.24 µM [activator, partial curve, poor fit].
In the case of `COc1cccc(NC(=O)Nc2ccc3c(c2)N(C)C(=O)CS3)c1`, the Potency is reported as inconclusive: 35.5 µM [activator, partial curve, poor fit].
For `COc1ccc(CNC(=O)CCNS(=O)(=O)c2ccc(Br)s2)cc1`, the Potency was inconclusive: 5.01 µM [activator, single point].
With `Cc1occc1C(=O)Nc1ccc(S(N)(=O)=O)cc1` the Potency was inconclusive: 10 µM [activator, single point].
With `CC(OC(=O)CN1C(=O)c2ccccc2C1=O)C(=O)NC1(C#N)CCCCC1` (stereo not given) the Potency was inconclusive: 28.2 µM [activator, single point].
In the case of `O=C(c1cccs1)N1CCCC(c2nc3c(nnn3Cc3cccc(Cl)c3)c(=O)[nH]2)C1` (stereo not given), the Potency is reported as inconclusive: 8.91 µM [activator, partial curve, poor fit].
With `CNC(=O)CO/N=C/c1ccc(N(C)C)cc1` the Potency was “inactive”.
With `COc1ccc(N2CCN(CC(=O)Nc3nc(C)cs3)CC2)cc1` the Potency was “inactive”.
In the case of `C=CCN(CC=C)C(=O)CN1C(=O)c2ccccc2C1=O`, the Potency is reported as inconclusive: 5.01 µM [activator, single point].
For `C=CCSc1nc(N)c2c3c(sc2n1)CN(C)CC3`, the Potency was inconclusive: 0.891 µM [activator, partial curve, poor fit].
For `Cc1cc(C(=O)N/N=C/c2ccc(C)o2)c2ccccc2n1`, the Potency was “inactive”.
For `c1ccc(OCCOc2cccc3cccnc23)cc1`, the Potency was “inactive”.
For `Cn1c(=O)n(CCCOc2ccc(Br)cc2)c2ccccc21`, the Potency was “inactive”.
With `COc1ccc(/C=C(/NC(=O)c2ccco2)C(=O)N2CCOCC2)cc1` the Potency was “inactive”.
For `Cc1ccc2c(c1)N(S(=O)(=O)c1ccc3c(c1)NC(=O)CC(=O)N3)CCO2`, the Potency was “inactive”.
In the case of `C/C(=N\NC(=O)c1ccc(Cl)c(Cl)c1)c1ccccn1`, the Potency is reported as “inactive”.
For `COCCNC(=O)c1ccc(CSCc2cccc(Cl)c2)o1`, the Potency was inconclusive: 2.82 µM [activator, single point].
With `O=[N+]([O-])c1cccc(-c2csc(CS(=O)(=O)Cc3ccco3)n2)c1` the Potency was inconclusive: 3.16 µM [activator, single point].
For `CC(C)(C)c1cc(C(=O)NN)n(Cc2ccc(Cl)cc2Cl)n1`, the Potency was inconclusive: 2.51 µM [activator, single point].
In the case of `COc1cc(C(=O)N2CCCC(c3nc(-c4cccs4)no3)C2)cc(OC)c1OC` (stereo not given), the Potency is reported as inconclusive: 5.01 µM [activator, single point].
For `Cc1ccc(C(C)C)c(OCC(O)CN(C)Cc2ccccc2)c1` (stereo not given), the Potency was “inactive”.
For `O=C1NN(c2ccc(Br)cc2)C(=O)/C1=C\c1ccc(O)cc1O`, the Potency was inconclusive: 1.58 µM [activator, partial curve, poor fit].
In the case of `CS(=O)(=O)N1CCc2cc(-c3csc(NCC4CCCO4)n3)ccc21` (stereo not given), the Potency is reported as “inactive”.
In the case of `COc1ccc(OC)c(C(=O)c2coc3ccc(OC(C)=O)cc23)c1`, the Potency is reported as inconclusive: 10 µM [activator, single point].
With `CCc1nc(CNC(=O)C2CCC(=O)N(Cc3cccc(OC)c3)C2)no1` (stereo not given) the Potency was inconclusive: 1.41 µM [activator, single point].
In the case of `CCN1CCN(CCC(=O)Nc2ccc(Br)c(C)c2)CC1`, the Potency is reported as inconclusive: 1.78 µM [activator, partial curve, poor fit].
For `CC(C)(CO)Nc1ncnc2onc(-c3ccc(F)cc3)c12`, the Potency was inconclusive: 3.55 µM [activator, single point].
With `O=C(CN1CCN(c2ccc(F)cc2)CC1)Nc1ccc(S(=O)(=O)N2CCOCC2)cc1` the Potency was inconclusive: 3.16 µM [activator, single point].
In the case of `CN(C)CCCNC(=O)C[C@H]1C[C@H](C(=O)N2CCCCC2)[C@@]2(CCc3ccccc3)c3[nH]c4cc(-c5ccco5)ccc4c3CCN2C1=O`, the Potency is reported as “inactive”.
For `Clc1ccc(-n2nnnc2SCc2c(-c3ccccc3)nc3sccn23)cc1`, the Potency was “inactive”.
With `O=C(O)c1ccc(NC2=C/C(=N/S(=O)(=O)c3ccccc3)c3ccccc3C2=O)cc1` the Potency was “inactive”.
For `O=C(Nc1ccc(S(=O)(=O)Nc2nccs2)cc1)c1ccccc1OC(F)F`, the Potency was active: 10 µM.
For `O=C(NCCC1=CCCCC1)C(=O)NCC(c1ccco1)N1CCN(c2ccccc2)CC1` (stereo not given), the Potency was “inactive”.
In the case of `CCCCC(=O)NC(=O)NC(c1ccccc1)c1ccccc1`, the Potency is reported as inconclusive: 0.794 µM [activator, full curve, poor fit].
With `COc1ccc(C2=NOC(C(=O)Nc3ccc4c(c3)OCCO4)C2)cc1OC` (stereo not given) the Potency was inconclusive: 5.01 µM [activator, single point].
With `Nc1ccc[n+](CC(=O)c2ccccc2)c1` the Potency was inconclusive: 28.2 µM [activator, single point].
For `Cc1cc(N2CCCC2=O)cc(C)c1S(=O)(=O)NCCOc1ccccc1`, the Potency was “inactive”.
In the case of `CS(=O)(=O)N1CCC(Oc2ccccc2C(=O)N2CCC[C@H]2CO)CC1`, the Potency is reported as inconclusive: 2.24 µM [activator, partial curve, poor fit].
In the case of `Cc1cccc(CC(C)NC(=O)c2cc(COc3ccc(F)cc3F)on2)n1` (stereo not given), the Potency is reported as inconclusive: 5.01 µM [activator, single point].
For `COc1ccc(C(=O)Nc2ccc3nc(C)sc3c2)cc1OC`, the Potency was inconclusive: 5.01 µM [activator, single point].
In the case of `O=C(NCc1cccc2[nH]ccc12)C1CCC(=O)N(CCc2ccccc2)C1` (stereo not given), the Potency is reported as inconclusive: 28.2 µM [activator, single point].
In the case of `CC1(C)N=C(C(=O)c2ccccc2)N(O)C1(C)O` (stereo not given), the Potency is reported as inconclusive: 28.2 µM [activator, single point].
For `COc1cccc(N(CC(=O)Nc2ccccc2C(=O)N2CCCC2)S(C)(=O)=O)c1`, the Potency was inconclusive: 7.94 µM [activator, partial curve, poor fit].
In the case of `N#Cc1cccc(CS(=O)(=O)c2ccc(Cl)cc2)c1`, the Potency is reported as inconclusive: 3.16 µM [activator, partial curve, poor fit].
